These are yes or no findings as the source states them, for the method shown. In cells and extracts the contact can be indirect. Some binding calls cover weakened binding; strength is not graded here.
What was measured:
ASC = ASC (UniProt Q9ULZ3); assay: co-IP; co-immunoprecipitation of NLRP3, ASC and CASP1 or CASP8; bait, cells, tags and conditions not told in the text shown
NLRP3 = NLRP3 (UniProt Q96P20); assay: as above

Chains of the proteins cited; added tags and fusions are not shown.
UniProt Q9ULZ3: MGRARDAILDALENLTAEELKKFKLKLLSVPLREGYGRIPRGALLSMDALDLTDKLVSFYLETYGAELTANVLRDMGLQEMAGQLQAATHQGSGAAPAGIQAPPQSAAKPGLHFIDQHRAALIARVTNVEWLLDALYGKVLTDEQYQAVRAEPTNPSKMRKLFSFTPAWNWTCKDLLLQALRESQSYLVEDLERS
UniProt Q96P20: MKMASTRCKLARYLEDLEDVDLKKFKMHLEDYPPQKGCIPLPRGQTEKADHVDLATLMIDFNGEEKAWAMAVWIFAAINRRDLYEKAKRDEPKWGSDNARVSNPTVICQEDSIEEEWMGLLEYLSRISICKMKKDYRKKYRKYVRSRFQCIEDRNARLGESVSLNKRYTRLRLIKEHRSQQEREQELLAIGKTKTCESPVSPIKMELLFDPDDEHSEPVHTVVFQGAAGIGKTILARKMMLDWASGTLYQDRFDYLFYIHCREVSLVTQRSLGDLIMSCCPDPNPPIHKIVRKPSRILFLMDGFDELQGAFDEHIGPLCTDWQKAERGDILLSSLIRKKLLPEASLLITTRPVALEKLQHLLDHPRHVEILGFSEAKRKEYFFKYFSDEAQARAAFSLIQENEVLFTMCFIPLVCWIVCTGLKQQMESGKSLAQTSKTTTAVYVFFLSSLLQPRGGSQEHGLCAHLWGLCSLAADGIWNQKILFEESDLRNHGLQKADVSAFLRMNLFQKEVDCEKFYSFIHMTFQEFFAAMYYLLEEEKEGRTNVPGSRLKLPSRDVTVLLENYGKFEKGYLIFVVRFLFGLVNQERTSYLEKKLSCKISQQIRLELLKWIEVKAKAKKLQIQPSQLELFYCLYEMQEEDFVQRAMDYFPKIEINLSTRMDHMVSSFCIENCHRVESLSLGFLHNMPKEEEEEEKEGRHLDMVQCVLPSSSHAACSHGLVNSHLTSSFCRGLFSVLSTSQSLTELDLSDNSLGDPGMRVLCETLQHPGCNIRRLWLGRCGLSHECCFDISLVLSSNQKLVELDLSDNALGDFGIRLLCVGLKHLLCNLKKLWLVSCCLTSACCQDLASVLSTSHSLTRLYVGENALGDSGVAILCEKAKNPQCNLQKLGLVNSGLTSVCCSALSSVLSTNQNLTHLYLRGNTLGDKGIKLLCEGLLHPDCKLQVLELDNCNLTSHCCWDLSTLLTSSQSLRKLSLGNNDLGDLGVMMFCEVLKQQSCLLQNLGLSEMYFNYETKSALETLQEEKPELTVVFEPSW
UniProt Q14790: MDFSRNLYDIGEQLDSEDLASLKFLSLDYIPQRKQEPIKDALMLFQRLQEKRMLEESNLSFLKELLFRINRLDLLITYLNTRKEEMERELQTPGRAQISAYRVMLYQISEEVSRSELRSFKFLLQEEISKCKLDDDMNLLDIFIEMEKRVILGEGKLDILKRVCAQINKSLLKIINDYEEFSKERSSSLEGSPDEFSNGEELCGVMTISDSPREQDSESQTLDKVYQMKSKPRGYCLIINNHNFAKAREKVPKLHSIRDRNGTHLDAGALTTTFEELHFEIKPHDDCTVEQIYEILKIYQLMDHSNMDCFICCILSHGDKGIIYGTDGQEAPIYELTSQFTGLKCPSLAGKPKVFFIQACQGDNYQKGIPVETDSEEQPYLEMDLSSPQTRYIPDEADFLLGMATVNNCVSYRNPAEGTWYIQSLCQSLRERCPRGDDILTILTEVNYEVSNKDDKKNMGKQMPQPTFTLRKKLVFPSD

binding (ASC): binds
binding (NLRP3): binds
Substance: Caspase-8 (from UniProt Q14790 1-479)

From publication PMC9718385
